Measured values published in article PMC7608589, “Divergent architecture of the heterotrimeric NatC complex explains N-terminal acetylation of cognate substrates” (Nature Communications, 2020).
These are yes or no findings as the source states them, for the method shown. For some assays here: Binding seen in cells or lysates may run through a third protein. Some entries that bind do so weakly or less than the wild type. For some assays here: Tags and fused reporters may be left off the sequences shown.

How the values were obtained:
[1] = target: T1, His6-tagged full-length (FL) Naa35 (residues 1–733) (S. cerevisiae) (UniProt Q02197); assay: pull-down; NatC subunits co-expressed in E. coli; complexes affinity-purified via the Naa35 subunit (FL, ΔN17 or ΔN44); SDS–PAGE
T1 sequence: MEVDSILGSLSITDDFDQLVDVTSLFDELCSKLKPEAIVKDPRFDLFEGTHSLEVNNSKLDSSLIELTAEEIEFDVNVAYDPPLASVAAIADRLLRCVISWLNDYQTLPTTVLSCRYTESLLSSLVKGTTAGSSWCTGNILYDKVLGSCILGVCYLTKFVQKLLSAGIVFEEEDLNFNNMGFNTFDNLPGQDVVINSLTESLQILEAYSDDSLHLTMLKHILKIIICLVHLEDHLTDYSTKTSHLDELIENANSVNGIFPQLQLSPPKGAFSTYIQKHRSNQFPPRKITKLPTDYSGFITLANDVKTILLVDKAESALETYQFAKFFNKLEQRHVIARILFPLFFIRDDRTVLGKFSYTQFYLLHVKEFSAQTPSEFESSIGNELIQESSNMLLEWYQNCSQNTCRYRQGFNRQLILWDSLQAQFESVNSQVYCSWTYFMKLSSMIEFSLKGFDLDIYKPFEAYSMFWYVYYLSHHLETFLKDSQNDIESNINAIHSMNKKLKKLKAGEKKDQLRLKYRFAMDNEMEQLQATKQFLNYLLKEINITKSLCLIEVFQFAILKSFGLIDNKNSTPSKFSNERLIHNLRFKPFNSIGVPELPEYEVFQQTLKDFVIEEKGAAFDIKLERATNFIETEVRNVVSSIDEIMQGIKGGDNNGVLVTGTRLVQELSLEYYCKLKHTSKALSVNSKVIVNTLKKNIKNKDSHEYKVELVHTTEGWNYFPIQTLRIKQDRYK

[2] = target: T2, Naa35ΔN17 (residues 18–733) (S. cerevisiae) (UniProt Q02197); assay: as above
T2 sequence: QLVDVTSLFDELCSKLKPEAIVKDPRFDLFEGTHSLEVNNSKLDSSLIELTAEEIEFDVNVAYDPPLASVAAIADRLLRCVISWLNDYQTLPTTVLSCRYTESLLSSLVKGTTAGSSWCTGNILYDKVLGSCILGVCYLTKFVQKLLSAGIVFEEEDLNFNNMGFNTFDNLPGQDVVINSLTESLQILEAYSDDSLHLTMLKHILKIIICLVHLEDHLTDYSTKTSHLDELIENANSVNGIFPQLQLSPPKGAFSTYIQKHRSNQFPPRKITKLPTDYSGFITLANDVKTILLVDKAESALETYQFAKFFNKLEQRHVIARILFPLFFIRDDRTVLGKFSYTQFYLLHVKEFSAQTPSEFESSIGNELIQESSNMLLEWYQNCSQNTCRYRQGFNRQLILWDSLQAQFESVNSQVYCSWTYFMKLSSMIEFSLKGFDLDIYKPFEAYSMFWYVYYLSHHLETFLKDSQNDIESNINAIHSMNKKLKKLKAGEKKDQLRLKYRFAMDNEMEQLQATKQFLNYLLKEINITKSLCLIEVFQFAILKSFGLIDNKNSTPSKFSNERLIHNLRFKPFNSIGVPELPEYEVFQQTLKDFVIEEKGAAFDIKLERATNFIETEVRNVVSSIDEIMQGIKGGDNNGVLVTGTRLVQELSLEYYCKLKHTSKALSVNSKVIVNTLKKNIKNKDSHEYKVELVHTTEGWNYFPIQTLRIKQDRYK

[3] = target: T1, His6-tagged full-length (FL) Naa35 (residues 1–733) (S. cerevisiae); assay: pull-down; Naa30ΔC17 and full-length Naa35 co-expressed in E. coli without Naa38 (ΔNaa38); purified by the same protocol as NatC (Ni2+-sepharose, HRV 3C cleavage, second Ni2+ column, Superdex200)
[4] = target: T3, full-length Naa35 (residues 1–733), large auxiliary subunit of S. cerevisiae NatC, His6-tag cleaved (S. cerevisiae) (UniProt Q02197); assay: crystal structure; NatC (Naa30ΔC17, Naa35, Naa38ΔC11) co-expressed in E. coli and purified as a complex; apo (SeMet) and CoA-bound (1:3); sitting drops, 14.5–16.5% PEG 4000, 150 mM ammonium iodide, 100 mM sodium citrate pH 6.1–6.3; both purified
T3 sequence: T1 sequence

[5] = target: T4, Naa30ΔC17 (residues 1–159), catalytic subunit of S. cerevisiae NatC (S. cerevisiae) (UniProt Q03503); assay: as above
T4 sequence: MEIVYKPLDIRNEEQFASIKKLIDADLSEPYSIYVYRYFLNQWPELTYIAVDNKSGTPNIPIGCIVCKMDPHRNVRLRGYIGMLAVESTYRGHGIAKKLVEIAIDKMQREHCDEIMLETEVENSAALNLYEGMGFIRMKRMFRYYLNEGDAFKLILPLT

Measured: binding

B1: Naa30ΔC17 (residues 1–159), catalytic subunit of S. cerevisiae NatC (domain or fragment, UniProt Q03503 1-159)
chain: T4 sequence
not listed: [5]
binds: all other assays above

B2: Naa38ΔC11 (residues 1–77), small auxiliary subunit of S. cerevisiae NatC (domain or fragment, UniProt P23059 1-77)
chain: MDILKLSDFIGNTLIVSLTEDRILVGSLVAVDAQMNLLLDHVEERMGSSSRMMGLVSVPRRSVKTIMIDKPVLQELT
not listed: [3]
binds: all other assays above
